The target of this data set is P-gp (Homo sapiens, UniProt P08183). Nature of the data set: P-gp substrate assessment using MDR1-MDCK monolayers (Example 1, +/- valspodar). The data set is classed as in vitro ADME. Also on record: expressed in transfected cells; host or cells: MDR1-MDCK cells. As to conditions: dog; 12-well plates, QC of MDR1-MDCK cell batch; read-out: Papp (cell batch quality control). The protocol: MDR1-MDCK cell monolayers were grown to confluence on collagen-coated, microporous membranes in 12-well assay plates. Details of the plates and their certification are shown below. The permeability assay buffer was Hanks' balanced salt solution (HBSS) containing 10 mM HEPES and 15 mM glucose at a pH of 7.4. The buffer in the receiver chamber also contained 1% bovine serum albumin. The dosing solution concentration was 5 μM of test article in the assay buffer+/−1 μM valspodar. Cells were first pre-incubated for 30 min with HBSS containing+/−1 μM valspodar. Cell monolayers were dosed on the apical side (A-to-B) or basolateral side (B-to-A) and incubated at 37° C. with 5% CO2 in a humidified incubator. Samples were taken from the donor and receiver chambers at 120 min. Each determination was performed in duplicate. The flux of lucifer yellow was also measured post-experimentally for each monolayer to ensure no damage was inflicted to the cell monolayers during the flux period. All samples were assayed by LC-MS/MS using electrospray ionization. […]
The apparent permeability (Papp) and percent recovery were calculated as follows: […]

Amino acid sequences for entries named in this document (tags omitted).
UniProt P08183, whole entry: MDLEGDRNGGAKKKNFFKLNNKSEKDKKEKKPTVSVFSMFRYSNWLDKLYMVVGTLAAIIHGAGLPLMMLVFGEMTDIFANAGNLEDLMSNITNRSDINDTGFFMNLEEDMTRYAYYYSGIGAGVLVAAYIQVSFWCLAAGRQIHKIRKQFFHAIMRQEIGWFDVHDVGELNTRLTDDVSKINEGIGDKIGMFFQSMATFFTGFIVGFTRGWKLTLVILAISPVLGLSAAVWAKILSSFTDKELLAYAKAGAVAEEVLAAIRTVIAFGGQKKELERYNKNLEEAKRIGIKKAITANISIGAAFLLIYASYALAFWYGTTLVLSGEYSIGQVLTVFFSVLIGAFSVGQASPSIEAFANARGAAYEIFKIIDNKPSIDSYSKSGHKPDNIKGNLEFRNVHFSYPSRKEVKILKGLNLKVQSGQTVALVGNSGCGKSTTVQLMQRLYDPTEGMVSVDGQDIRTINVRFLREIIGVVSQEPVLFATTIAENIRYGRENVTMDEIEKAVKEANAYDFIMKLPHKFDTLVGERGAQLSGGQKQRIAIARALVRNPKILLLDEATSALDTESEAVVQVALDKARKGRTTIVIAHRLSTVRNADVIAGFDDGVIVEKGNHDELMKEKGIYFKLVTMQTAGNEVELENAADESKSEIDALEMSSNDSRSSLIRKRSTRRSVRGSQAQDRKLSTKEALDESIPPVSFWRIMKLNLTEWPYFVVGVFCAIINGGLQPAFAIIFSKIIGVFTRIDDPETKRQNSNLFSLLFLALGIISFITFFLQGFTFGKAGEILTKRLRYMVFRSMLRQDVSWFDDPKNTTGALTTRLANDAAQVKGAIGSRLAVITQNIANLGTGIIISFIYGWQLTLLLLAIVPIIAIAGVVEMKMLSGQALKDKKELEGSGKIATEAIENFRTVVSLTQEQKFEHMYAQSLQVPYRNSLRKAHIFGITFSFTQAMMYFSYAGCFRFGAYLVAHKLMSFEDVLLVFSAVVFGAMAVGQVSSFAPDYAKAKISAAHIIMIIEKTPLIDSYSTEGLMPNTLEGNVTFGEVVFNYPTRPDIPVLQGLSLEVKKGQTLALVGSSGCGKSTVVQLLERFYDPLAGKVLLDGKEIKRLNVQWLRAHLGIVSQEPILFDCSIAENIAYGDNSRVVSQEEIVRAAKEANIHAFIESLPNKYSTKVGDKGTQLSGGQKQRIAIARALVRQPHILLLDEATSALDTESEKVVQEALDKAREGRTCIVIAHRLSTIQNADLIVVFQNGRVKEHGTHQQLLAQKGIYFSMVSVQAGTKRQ

`CC(C)NCC(O)COc1ccc(CC(N)=O)cc1` (stereo not shown) [Atenolol]: the Papp (as a rule, a coefficient for how fast a substance crosses the barrier) was 0.05 ×10⁻⁶ cm/s.

For the origin of these results see patent publication US20250152591A1, “TREATMENT OF HEMATOLOGICAL MALIGNANCIES WITH MENIN INHIBITORS AND P-GLYCOPROTEIN INHIBITORS” (Kura Oncology, Inc., priority 2022, published 2025).
